Data reported in the supplement of paper PMC10338343.
± gives the standard deviation. The list shows a part of the results, in another mix than the full data. Many of these values have a large error. The list shows a part of the results.

Tests used:
[1] = tested on: MILI (PIWIL2) piRISC loaded with L1MC piRNA (26 nt); assay: pre-steady-state target cleavage rate (min^-1); higher = faster piRNA-guided slicing of the target; settings: guide: L1MC piRNA 5'p-UAACUAAAUACUAUGCAAGCUGUAGG; auxiliary factor: none (no GTSF1)
How it was run: (§1)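 In HEPES–potassium acetate buffer at 33 °C, […] transcribed, DNA-blocked target RNA library was mixed with 1 nM active affinity-purified piRISC carrying one synthetic guide, with or without 500 nM GTSF1 partner protein, for 0–8 or 0–960 min. Uncleaved targets were sequenced and normalised to depth and to weakly complementary targets; three trials were pooled and k3 was capped at 0.0001 min^-1. The pre-steady-state cleavage rate followed from a burst-and-steady-state fit.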

[2] = tested on: MIWI (PIWIL1) piRISC loaded with L1MC piRNA (30 nt); assay: as above; settings: guide: L1MC piRNA 5'p-UAACUAAAUACUAUGCAAGCUGUAGGUCCU; auxiliary factor: none (no GTSF1)
How it was run: as §1

[3] = tested on: EfPiwi piRISC loaded with L1MC piRNA (26 nt); assay: pre-steady-state target cleavage rate (min^-1); guide: L1MC piRNA 5'p-UAACUAAAUACUAUGCAAGCUGUAGG; MIWI and MILI are mouse PIWI proteins and EfPiwi is from a freshwater sponge; tags in brackets are library labels; higher = faster piRNA-guided slicing of the target
How it was run: as §1

[4] = auxiliary factor: 500 nM Ephydatia muelleri Gtsf1
[5] = auxiliary factor: none (no Gtsf1)

Sequence: UCCUGGAUCAGCUUGCAUACAAUUUAGUAA
- pre-steady-state target cleavage rate [1]: 0.000715 ± 0.0077
- pre-steady-state target cleavage rate [2]: 0.000415 ± 0.0072
- pre-steady-state target cleavage rate [3, 4]: 0.00292 ± 0.0052
- pre-steady-state target cleavage rate [3, 5]: 0.000279 ± 0.018

Sequence: UCCUGGAACAGCUUGCAUAGUAUAUUCAAA
- pre-steady-state target cleavage rate [1]: 0.000657 ± 0.0075
- pre-steady-state target cleavage rate [2]: 0.00116 ± 0.006
- pre-steady-state target cleavage rate [3, 4]: 0.00181 ± 0.0037
- pre-steady-state target cleavage rate [3, 5]: 0.000416 ± 0.013

Sequence: UCCUGGAUCAGGAUGCAUAGUAUUUAGAAA
- pre-steady-state target cleavage rate [1]: 0.00134 ± 0.0037
- pre-steady-state target cleavage rate [2]: 0.00126 ± 0.0056
- pre-steady-state target cleavage rate [3, 4]: 0.00187 ± 0.0026
- pre-steady-state target cleavage rate [3, 5]: 0.000284 ± 0.016

Sequence: UCCUGGAUGUCGUUCAUAGUAUUUAGUUA
- pre-steady-state target cleavage rate [1]: 0.00207 ± 0.0026
- pre-steady-state target cleavage rate [2]: 0.000819 ± 0.0082
- pre-steady-state target cleavage rate [3, 4]: 0.000886 ± 0.0062
- pre-steady-state target cleavage rate [3, 5]: < 0.0001

Sequence: UCCUGGAACAGCUUGCAUUCAAUUUAGUAA
- pre-steady-state target cleavage rate [1]: 0.000995 ± 0.0053
- pre-steady-state target cleavage rate [2]: 0.000705 ± 0.011
- pre-steady-state target cleavage rate [3, 4]: 0.000564 ± 0.0048
- pre-steady-state target cleavage rate [3, 5]: 0.000528 ± 0.013

Sequence: UCCUGCUACAGCUUGCAUAGUAUAAAGAAA
- pre-steady-state target cleavage rate [1]: 0.000948 ± 0.0082
- pre-steady-state target cleavage rate [2]: 0.00119 ± 0.0064
- pre-steady-state target cleavage rate [3, 4]: 0.00337 ± 0.0023
- pre-steady-state target cleavage rate [3, 5]: 0.000226 ± 0.026

Sequence: UCCUGGUACAGCUUGCUAUGUAUUUUCAAA
- pre-steady-state target cleavage rate [1]: 0.000959 ± 0.0063
- pre-steady-state target cleavage rate [2]: 0.000865 ± 0.0071
- pre-steady-state target cleavage rate [3, 4]: 0.000465 ± 0.0064
- pre-steady-state target cleavage rate [3, 5]: 0.000333 ± 0.021

Sequence: UCCUGGAUGAGCUUGCAUAGUAAAAAGUUA
- pre-steady-state target cleavage rate [1]: 0.00103 ± 0.0065
- pre-steady-state target cleavage rate [2]: 0.000878 ± 0.0047
- pre-steady-state target cleavage rate [3, 4]: 0.000594 ± 0.0065
- pre-steady-state target cleavage rate [3, 5]: 0.000957 ± 0.013

Sequence: UCCUGGAUGAGCUUGCAUAGUAUAAUGUAA
- pre-steady-state target cleavage rate [1]: 0.000745 ± 0.0066
- pre-steady-state target cleavage rate [2]: 0.00104 ± 0.0044
- pre-steady-state target cleavage rate [3, 4]: 0.000918 ± 0.0035
- pre-steady-state target cleavage rate [3, 5]: 0.000979 ± 0.012

Sequence: UCCUGGAACAGCUAGCAUAGUAUUUACAAA
- pre-steady-state target cleavage rate [1]: 0.00153 ± 0.0049
- pre-steady-state target cleavage rate [2]: 0.00248 ± 0.0038
- pre-steady-state target cleavage rate [3, 4]: 0.00337 ± 0.0029
- pre-steady-state target cleavage rate [3, 5]: 0.000212 ± 0.036

Sequence: UCCUGGUACAGCUUGCAUUGUAUUUACAAA
- pre-steady-state target cleavage rate [1]: 0.00152 ± 0.0066
- pre-steady-state target cleavage rate [2]: 0.00164 ± 0.0048
- pre-steady-state target cleavage rate [3, 4]: 0.000776 ± 0.0065
- pre-steady-state target cleavage rate [3, 5]: 0.000327 ± 0.029

Sequence: UCCUGGAACAGCUUCCAUAGUAUUUAGUAA
- pre-steady-state target cleavage rate [1]: 0.00133 ± 0.0046
- pre-steady-state target cleavage rate [2]: 0.00152 ± 0.0055
- pre-steady-state target cleavage rate [3, 4]: 0.00376 ± 0.0014
- pre-steady-state target cleavage rate [3, 5]: 0.0008 ± 0.013

Sequence: UCCUGGUACAGCAACCAUAGUAUUUACAAA
- pre-steady-state target cleavage rate [1]: 0.000641 ± 0.01
- pre-steady-state target cleavage rate [2]: 0.000733 ± 0.01
- pre-steady-state target cleavage rate [3, 4]: 0.000291 ± 0.014
- pre-steady-state target cleavage rate [3, 5]: 0.000121 ± 0.031

Sequence: UCCUCCUACAGCAACCAUAGUAUUUUCAAA
- pre-steady-state target cleavage rate [1]: 0.000622 ± 0.0078
- pre-steady-state target cleavage rate [2]: 0.000262 ± 0.0098
- pre-steady-state target cleavage rate [3, 4]: 0.000713 ± 0.0088
- pre-steady-state target cleavage rate [3, 5]: 0.00019 ± 0.026

Sequence: UCCUGGAUGAGCUUGCAUAGAUUUUACAAA
- pre-steady-state target cleavage rate [1]: 0.000617 ± 0.0088
- pre-steady-state target cleavage rate [2]: 0.000305 ± 0.009
- pre-steady-state target cleavage rate [3, 4]: 0.000922 ± 0.0045
- pre-steady-state target cleavage rate [3, 5]: 0.0001 ± 0.049

Sequence: UCCUGGAUGUCCUUGCAUAGAAUUUAGUUA
- pre-steady-state target cleavage rate [1]: 0.00208 ± 0.0039
- pre-steady-state target cleavage rate [2]: 0.00253 ± 0.0038
- pre-steady-state target cleavage rate [3, 4]: 0.000878 ± 0.0046
- pre-steady-state target cleavage rate [3, 5]: 0.000312 ± 0.011

Sequence: UCCUGGAACAGCUUGCAUAGUAAAAAGUAA
- pre-steady-state target cleavage rate [1]: 0.00104 ± 0.0056
- pre-steady-state target cleavage rate [2]: 0.000864 ± 0.0051
- pre-steady-state target cleavage rate [3, 4]: 0.00258 ± 0.0039
- pre-steady-state target cleavage rate [3, 5]: 0.000353 ± 0.024

Sequence: UCCUGGUACAGCUAGCAUAGUAUUUAGAAA
- pre-steady-state target cleavage rate [1]: 0.00184 ± 0.0037
- pre-steady-state target cleavage rate [2]: 0.00211 ± 0.0037
- pre-steady-state target cleavage rate [3, 4]: 0.00319 ± 0.0022
- pre-steady-state target cleavage rate [3, 5]: 0.000322 ± 0.018

Sequence: UCCUCCUACAGCUUCGAUAGUAUUUUCAAA
- pre-steady-state target cleavage rate [1]: 0.000675 ± 0.0066
- pre-steady-state target cleavage rate [2]: 0.000628 ± 0.0088
- pre-steady-state target cleavage rate [3, 4]: 0.00156 ± 0.0033
- pre-steady-state target cleavage rate [3, 5]: 0.00025 ± 0.017

Sequence: UCCUGGAACAGCUUGCAUAGUAUUUGUUA
- pre-steady-state target cleavage rate [1]: 0.000843 ± 0.0076
- pre-steady-state target cleavage rate [2]: 0.00308 ± 0.0035
- pre-steady-state target cleavage rate [3, 4]: 0.00531 ± 0.0019
- pre-steady-state target cleavage rate [3, 5]: 0.000863 ± 0.0096

Sequence: UCCUGCUACAGCUUGCUAUGUAUUUUCAAA
- pre-steady-state target cleavage rate [1]: 0.000453 ± 0.011
- pre-steady-state target cleavage rate [2]: 0.000164 ± 0.019
- pre-steady-state target cleavage rate [3, 4]: 0.000876 ± 0.0062
- pre-steady-state target cleavage rate [3, 5]: 0.000237 ± 0.015

Sequence: UCCUGGAUGUGCUUGCAUUCUAUUUAGAAA
- pre-steady-state target cleavage rate [1]: 0.000323 ± 0.017
- pre-steady-state target cleavage rate [2]: 0.000576 ± 0.01
- pre-steady-state target cleavage rate [3, 4]: 0.000361 ± 0.0088
- pre-steady-state target cleavage rate [3, 5]: 0.000227 ± 0.034
